# Out of some 320,000 compounds screened, about 2,100 (0.66%) were called active. Inconclusive results, whose numbers are uncertain, are shown with a selection of clear calls. Calls come from the whole dose curve; as a rule, active = well fitted inhibition curve with a large enough effect in the signal ratio, with a control signal flat (not every such curve was filed as active); inconclusive = small, poorly fitted or top-dose-only effect, or effect the other way, or a change in a side signal; inactive = flat fitted curve, though single readings scatter; the % refers to the signal ratio. A potency beside an inconclusive call is a rough fit, not a confirmed value.
# Experiment: qHTS Assay for Lipid Storage Modulators in Drosophila S3 Cells
# Conditions: BODIPY lipid droplet fluorescence, 18-24 h, cells fed with added oleic acid; lipid storage change, negative = inhibition: at 46.1 µM (top of the series) unless noted
# How it was run: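 Drosophila S3 cells got compounds at several concentrations plus oleic acid (400 uM solution). Laser-scanning cytometry with 488 nm excitation read lipid droplets at 500-530 nm and cells at 575-640 nm. Percent activity was relative to 20 uM Triacsin C.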
# % is set by controls: 0 for no effect and ±100 for the full control effect; potency is the fitted concentration of half-maximal effect.
SMILES,"lipid storage change, negative = inhibition",Potency
CC(=O)c1cccc(S(=O)(=O)Nc2ccc3nc(C)sc3c2)c1,inconclusive: 22.2%,–
O=C(O)c1ccccc1C(=O)c1ccc(Br)s1,inconclusive: 2.74% [at 9.22 µM],–
Cc1csc(NC(=O)CSc2ccc([N+](=O)[O-])cn2)n1,–,"inconclusive: 35.5 µM [falling, single point]"
CCOc1ccc(C(=O)NC(=S)Nc2ccccc2N2CCCCC2)cc1[N+](=O)[O-],inconclusive: -88.5%,–
CCCCN(CCCC)c1nc2ccccc2nc1NS(=O)(=O)c1ccc(NC(C)=O)cc1,inconclusive: 139%,–
Cc1nc(C)c(NC(=O)OC(C)C)cc1NC(=O)OC(C)C,inconclusive: 27.3%,–
CCN(CC(=O)Nc1c(F)cccc1F)C(=O)C1CCN(S(=O)(=O)c2ccc(F)cc2)CC1,–,"inconclusive: 0.103 µM [activator, full curve, poor fit]"
COC(=O)CSC1=C(C#N)C(c2ccc(C)cc2)C2=C(CCCC2=O)N1 (centres undefined),inconclusive: 14.5%,–
O=C(COC(=O)c1ccco1)NCc1ccc2c(c1)OCO2,inconclusive: 23.2%,–
COc1ccc(/C=C2\Oc3cc(OCC(=O)N4CCC[C@H]4CO)ccc3C2=O)c(OC)c1,–,"inconclusive: 29.1 µM [falling, single point]"
CCN1c2ccccc2-c2nc3ccccc3n2C1c1ccccn1 (centres undefined),–,"inconclusive: 8.2 µM [activator, partial curve]"
COc1cccc(OCCCCN2CC(C)OC(C)C2)c1 (centres undefined),inconclusive: 49%,–
Cc1cc(NC(=O)c2noc3c2CCCCC3)nn1Cc1ccc(Cl)cc1,–,"inconclusive: 5.8 µM [activator, partial curve]"
O=C(N/N=C/c1cccc([N+](=O)[O-])c1)c1cc2ccccc2o1,inconclusive: 14.5%,–
CCOC(=O)N1CCC(NC(=O)c2cnn3c(C(F)(F)F)cc(-c4cccc(OC)c4)nc23)CC1,–,"inconclusive: 0.184 µM [activator, full curve]"
COCCn1c(Sc2nc(C)cs2)nc2c1c(=O)[nH]c(=O)n2C,inconclusive: -36.1%,–
COc1ccc(S(=O)(=O)N(C)c2ccc(C(=O)NCc3ccco3)cc2)cc1OC,inconclusive: -1.87%,–
CC(=O)c1cccc(NC(=O)C2CCN(S(=O)(=O)c3cccs3)CC2)c1,–,"inconclusive: 29.1 µM [activator, single point]"
NS(=O)(=O)c1ccc2nc(NC(=O)c3ccc(Br)o3)sc2c1,inconclusive: -18.2%,–
COc1ccc(NC(=O)COC(=O)c2ccc(C)c(S(=O)(=O)N3CCCCC3)c2)cc1,–,"inconclusive: 32.6 µM [falling, single point]"
CC1CC(C)(C)NC(=S)N1CCC(=O)N1CCN(c2ccccc2)CC1 (centres undefined),inconclusive: 26.4%,–
COc1ccc(CCNc2ccc([N+](=O)[O-])cn2)cc1,inconclusive: -41.1%,–
COc1ccc2c(c1)nc(N)n2Cc1ccccc1,inconclusive: 13.9%,–
COc1ccc(S(=O)(=O)Nc2cc3c4c(c2)C(C)C(=O)N4CCC3)cc1OC (centres undefined),inconclusive: 40.1%,–
Cc1ccc(OCC(=O)N2CCCC(CO)(CCOc3ccccc3)C2)cc1 (centres undefined),–,active: 14.6 µM

SMILES,"lipid storage change, negative = inhibition",Potency
CN(CC(=O)Nc1ccccc1Cl)C(=O)Cn1cc(C(F)(F)F)cc(Cl)c1=O,inconclusive,–
Cc1ccc(C(=O)NC(=S)NNS(=O)(=O)c2ccc(C)cc2)cc1,inconclusive: 6.71%,–
CCOC(=O)NC(Nc1sc2c(c1C(=O)OC)CCN(C)C2)(C(F)(F)F)C(F)(F)F,inconclusive: -37.9%,–
O=C(NCCN1CCCC1)C1CCN(S(=O)(=O)N2CCC3(CC2)OCCO3)CC1,–,active: 29.1 µM
CCCCc1ccc(NC(=S)N2CCN(C(=O)OCC)CC2)cc1,–,"inconclusive: 10.3 µM [activator, partial curve]"
N#CC1=C(N)NC(SCC(=O)O)=C(C#N)C12CCCC2,inconclusive: 19.1%,–
O=S(=O)([N-]c1nc2ccccc2nc1-[n+]1ccc(-c2ccncc2)cc1)c1ccccc1,inconclusive: -39.8%,–
COc1cc(C(=O)OCC(=O)c2cc(C)n(C)c2C)cc(OC)c1OC,inconclusive: -45.3%,–
COc1cccc(OCCOc2ccc(/C=C3/SC(=S)NC3=O)cc2)c1,–,"inconclusive: 3.66 µM [activator, partial curve, poor fit]"
CC(=O)Nc1ccc(C(=O)COC(=O)c2cccs2)c(F)c1,inconclusive: -9.33%,–
Cc1cccc(OCC(=O)Nc2cc(NC(=O)COc3cccc(C)c3)cc(C(=O)O)c2)c1,inconclusive: 30.7%,–
COc1ccc(CCNC(=O)Cc2cccc(C(F)(F)F)c2)cc1OC,inconclusive: -61.2%,–
CS(=O)(=O)c1ccc(Cl)c(NC(=O)C2CCCN(C(=O)c3ccc(Cl)cc3)C2)c1 (centres undefined),inconclusive,–
CCC(=O)N/C(=N/c1nc(C)cc(C)n1)Nc1ccccc1,inconclusive: 14.8%,–
CC(=O)c1ccc(S(=O)(=O)NCCC(=O)NC(C)c2ccncc2)cc1 (centres undefined),inconclusive: 23.8%,–
O=C(c1cc2ccccc2oc1=O)N(Cc1cccs1)CC1CCCO1 (centres undefined),inconclusive: -12.3%,–
Cc1c(NC(=O)CSc2nnnn2-c2ccc(C(=O)O)cc2)c(=O)n(-c2ccccc2)n1C,inconclusive: 9.52%,–
CSCCC1COC(c2cccs2)=N1 (centres undefined),inconclusive: -16.2%,–
Cc1ccc(NC(=O)CC2S/C(=N/N=C3\CCCc4ccccc43)NC2=O)cc1 (centres undefined),inconclusive: 21.5%,–
C/C=C/c1ccc(OCCCCOc2ccccc2C(C)=O)c(OC)c1,–,"inconclusive: 0.58 µM [activator, single point]"
Cc1ccc(S(=O)(=O)N2CCCCC2)cc1NC(=O)C1=NN(c2ccccc2)C(=O)CC1,inconclusive: -37.5%,–
COc1ccccc1NS(=O)(=O)c1cc(NC(=O)c2ccccc2F)ccc1N1CCOCC1,inconclusive: -1.31%,–
Cc1nnc(SCC(=O)Nc2ncc3c(n2)CC(C)(C)CC3=O)s1,inconclusive: 24.3%,–
O=C(COc1ccccc1)OCc1cc2ccccc2[nH]c1=O,–,"inconclusive: 0.58 µM [falling, full curve]"

# — PubChem BioAssay AID2685 (National Center for Advancing Translational Sciences (NCATS), 2010)
